Assay [1] deals with mCerulean (Cer)-SERCA2a (UniProt O55143). Nature of the assay: FRET or BRET; acceptor sensitization FRET microscopy in live transfected AAV-293 cells (Cer excitation, YFP emission); FRET efficiency against YFP intensity of ~1000 cells per experiment, hyperbolic fit; apparent Kd in arbitrary units.
Assay [2] deals with T1, yellow fluorescent protein (YFP)-PLN, P61014.
T1 chain: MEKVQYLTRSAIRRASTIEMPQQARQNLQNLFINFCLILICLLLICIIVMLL
The assay is described as follows: FRET or BRET; progressive acceptor photobleaching of YFP in live transfected AAV-293 cells; donor against acceptor fluorescence, a linear relationship taken as a 1:1 complex. To be noted: remark: other sources report otherwise. (BRET reads energy transfer from a luciferase to a nearby fluorophore.)

Sequences of proteins named here, by UniProt entry; tags and fusion partners are left off. A change or cut given only in a name is not applied to a line headed by its entry. A line that says so, or that is headed by a name, gives the form on record, which may keep a tag or linker.
Myc-tagged SERCA2a (O55143, form named): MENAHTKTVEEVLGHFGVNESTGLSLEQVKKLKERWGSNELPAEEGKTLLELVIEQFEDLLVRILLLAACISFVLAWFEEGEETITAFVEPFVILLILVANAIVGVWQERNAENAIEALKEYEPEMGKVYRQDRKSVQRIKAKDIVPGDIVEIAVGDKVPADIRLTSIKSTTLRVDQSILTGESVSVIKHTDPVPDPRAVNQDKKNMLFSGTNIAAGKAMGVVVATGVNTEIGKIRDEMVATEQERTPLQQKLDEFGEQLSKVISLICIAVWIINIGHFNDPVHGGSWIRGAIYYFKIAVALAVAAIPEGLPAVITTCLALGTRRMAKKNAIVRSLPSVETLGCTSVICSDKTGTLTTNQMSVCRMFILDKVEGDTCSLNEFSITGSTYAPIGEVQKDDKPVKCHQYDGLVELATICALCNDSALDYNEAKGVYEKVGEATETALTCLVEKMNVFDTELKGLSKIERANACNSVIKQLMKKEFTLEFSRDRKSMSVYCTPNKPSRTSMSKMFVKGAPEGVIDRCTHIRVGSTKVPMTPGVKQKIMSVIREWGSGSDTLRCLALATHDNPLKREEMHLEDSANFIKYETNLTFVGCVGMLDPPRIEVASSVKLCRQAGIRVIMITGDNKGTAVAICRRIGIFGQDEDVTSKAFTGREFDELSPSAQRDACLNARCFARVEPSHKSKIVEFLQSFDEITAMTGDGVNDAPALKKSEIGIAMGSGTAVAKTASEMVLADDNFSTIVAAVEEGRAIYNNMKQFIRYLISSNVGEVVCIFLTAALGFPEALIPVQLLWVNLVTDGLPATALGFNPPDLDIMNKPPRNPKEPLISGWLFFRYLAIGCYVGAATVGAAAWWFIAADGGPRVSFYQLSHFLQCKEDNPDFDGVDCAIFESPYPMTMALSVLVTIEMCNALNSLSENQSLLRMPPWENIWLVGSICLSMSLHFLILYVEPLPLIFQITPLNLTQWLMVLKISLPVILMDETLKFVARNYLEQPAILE

In assay [3] the target is Myc-tagged SERCA2a (UniProt O55143). The assay is described as follows: co-IP; HEK293 cells co-transfected with equal amounts of Myc-SERCA2a and HA-PLN (1 ug) and increasing amounts of HA-DWORF or control plasmid; whole cell lysates in CoIP buffer (0.1% NP-40, 150 mM NaCl); anti-Myc immunoprecipitation on Dynabeads, HA western blot.

Results are given in words; binding and its absence hold for the method and conditions named. In cells and extracts the contact can be indirect. Some entries that bind do so weakly or less than the wild type. Sequences can lack the tags named with a protein.

B1: yellow fluorescent protein (YFP)-PLN (protein, UniProt P61014 1-52)
chain: T1 chain
As to B1, in assay [1], the binding result is given as “binds”.

B2: yellow fluorescent protein (YFP)-PLN, P61014 1-52 (protein)
chain: T1 chain
With B2, the binding entry in assay [2] is recorded as “binds”.

B3: HA-tagged PLN (protein, UniProt P61014 1-52)
chain: T1 chain
As for B3, the binding entry in assay [3] was “binds”.

These data come from paper PMC6202051, “The DWORF micropeptide enhances contractility and prevents heart failure in a mouse model of dilated cardiomyopathy” (eLife, 2018).
